We go through two molecules from paper doi:10.1101/2021.07.09.451853.

By UniProt entry, the sequences of proteins in these tests, tags left out. Where a name states a change or a piece, a line headed by the entry shows the natural chain unless it says otherwise.
UniProt Q9SGW5: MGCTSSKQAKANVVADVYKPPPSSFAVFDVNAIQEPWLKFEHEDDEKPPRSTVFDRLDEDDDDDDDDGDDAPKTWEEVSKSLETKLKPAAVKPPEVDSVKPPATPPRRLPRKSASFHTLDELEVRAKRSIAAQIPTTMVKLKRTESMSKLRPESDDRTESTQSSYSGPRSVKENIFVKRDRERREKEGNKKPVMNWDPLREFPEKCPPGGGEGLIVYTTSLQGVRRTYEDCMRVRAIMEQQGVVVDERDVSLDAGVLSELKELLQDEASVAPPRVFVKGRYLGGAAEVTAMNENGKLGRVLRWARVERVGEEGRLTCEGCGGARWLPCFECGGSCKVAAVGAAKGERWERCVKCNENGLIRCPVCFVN

For this test, the target named is THRUMIN1:YFP in transgenic A. thaliana (A. thaliana) (UniProt Q9SGW5). Nature of the test: affinity purification with mass spectrometry.

These are yes or no findings as the source states them, for the method shown. In cells and extracts the contact can be indirect. A yes stands for co-enrichment or nearness to the bait. Other partners may have been found.

B1: 14-3-3 KAPPA, endogenous in A. thaliana (protein, UniProt P48348 1-248)
chain: MATTLSRDQYVYMAKLAEQAERYEEMVQFMEQLVSGATPAGELTVEERNLLSVAYKNVIGSLRAAWRIVSSIEQKEESRKNEEHVSLVKDYRSKVETELSSICSGILRLLDSHLIPSATASESKVFYLKMKGDYHRYLAEFKSGDERKTAAEDTMIAYKAAQDVAVADLAPTHPIRLGLALNFSVFYYEILNSSEKACSMAKQAFEEAIAELDTLGEESYKDSTLIMQLLRDNLTLWTSDMQEQMDEA
As for B1, the binding entry is given as “binds”.

B2: 14-3-3 OMEGA, endogenous in A. thaliana (protein, UniProt Q01525 1-259)
chain: MASGREEFVYMAKLAEQAERYEEMVEFMEKVSAAVDGDELTVEERNLLSVAYKNVIGARRASWRIISSIEQKEESRGNDDHVTAIREYRSKIETELSGICDGILKLLDSRLIPAAASGDSKVFYLKMKGDYHRYLAEFKTGQERKDAAEHTLAAYKSAQDIANAELAPTHPIRLGLALNFSVFYYEILNSPDRACNLAKQAFDEAIAELDTLGEESYKDSTLIMQLLRDNLTLWTSDMQDDAADEIKEAAAPKPTEEQQ
On to B2, for which the binding result is reported as “binds”.
